Laboratory results taken from patent US12390473B2, “Methods of treating tyrosine kinase inhibitor-induced diarrhea” (THE REGENTS OF THE UNIVERSITY OF CALIFORNIA, priority 2019, dated 2025).
At least one structure is not confirmed: it was looked up by name or label, or the drawing left a doubt. Some of these results come from one statement about several compounds together.

Protein sequences, listed by entry. Tags and fused reporters are not part of them.
UniProt P13569, whole entry: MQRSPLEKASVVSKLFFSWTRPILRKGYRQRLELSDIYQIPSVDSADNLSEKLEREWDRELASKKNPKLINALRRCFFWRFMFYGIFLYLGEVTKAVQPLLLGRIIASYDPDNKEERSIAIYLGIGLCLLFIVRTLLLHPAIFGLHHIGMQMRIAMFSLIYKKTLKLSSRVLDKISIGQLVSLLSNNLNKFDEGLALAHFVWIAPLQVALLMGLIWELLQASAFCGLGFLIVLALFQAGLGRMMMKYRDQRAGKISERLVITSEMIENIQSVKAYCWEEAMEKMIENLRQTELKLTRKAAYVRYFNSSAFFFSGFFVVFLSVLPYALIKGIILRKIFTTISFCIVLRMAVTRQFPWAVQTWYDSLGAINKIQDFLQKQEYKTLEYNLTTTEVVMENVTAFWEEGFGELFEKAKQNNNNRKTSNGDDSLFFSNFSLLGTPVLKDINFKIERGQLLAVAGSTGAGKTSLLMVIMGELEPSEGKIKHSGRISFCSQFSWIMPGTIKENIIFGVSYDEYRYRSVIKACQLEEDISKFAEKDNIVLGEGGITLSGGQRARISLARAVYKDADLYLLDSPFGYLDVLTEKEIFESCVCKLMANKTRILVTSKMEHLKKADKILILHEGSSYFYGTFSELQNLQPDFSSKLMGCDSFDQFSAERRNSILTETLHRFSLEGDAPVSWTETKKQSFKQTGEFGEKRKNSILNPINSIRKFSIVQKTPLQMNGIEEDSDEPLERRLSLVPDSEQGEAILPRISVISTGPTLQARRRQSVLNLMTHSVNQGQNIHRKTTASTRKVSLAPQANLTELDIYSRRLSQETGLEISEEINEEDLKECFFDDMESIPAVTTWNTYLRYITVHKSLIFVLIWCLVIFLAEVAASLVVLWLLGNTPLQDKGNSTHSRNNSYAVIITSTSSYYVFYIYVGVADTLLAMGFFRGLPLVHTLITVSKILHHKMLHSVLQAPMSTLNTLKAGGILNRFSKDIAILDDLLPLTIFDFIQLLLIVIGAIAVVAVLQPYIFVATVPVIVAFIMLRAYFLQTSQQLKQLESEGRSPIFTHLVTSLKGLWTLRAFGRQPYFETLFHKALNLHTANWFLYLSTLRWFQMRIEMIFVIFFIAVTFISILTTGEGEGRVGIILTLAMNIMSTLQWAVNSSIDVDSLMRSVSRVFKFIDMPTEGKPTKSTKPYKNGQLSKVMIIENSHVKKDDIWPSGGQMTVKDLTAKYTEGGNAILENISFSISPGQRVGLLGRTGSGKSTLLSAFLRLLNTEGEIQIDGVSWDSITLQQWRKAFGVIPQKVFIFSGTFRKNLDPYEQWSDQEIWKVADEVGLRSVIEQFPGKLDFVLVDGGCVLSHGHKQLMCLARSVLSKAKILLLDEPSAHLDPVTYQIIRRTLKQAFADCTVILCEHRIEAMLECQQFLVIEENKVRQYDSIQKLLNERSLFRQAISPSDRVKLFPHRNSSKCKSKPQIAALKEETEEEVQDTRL

Columns and labels:
[1] = system: T84 human colonic epithelial cells; experiment: Short-circuit current in T84 cell monolayers, identical apical and basolateral solutions; type: cell-based; settings: for amplification of carbachol-induced Cl- secretory response: TKI added 25 min prior to 100 μM carbachol
Procedure: T84 cells (ATCC CCL-248) are cultured in a 1:1 mixture of DMEM/Ham's F-12 medium supplemented with 10% FBS, 100 U/mL penicillin and 100 μg/mL streptomycin. Cells are grown on Snapwell inserts (Costar Corning, Horseheads, NY) at 37° C. in 5% CO2/95% air and used 7-10 days after plating.
T84 cells are mounted in Ussing chambers and bathed in symmetrical HCO3-buffered solution containing (in mM): 120 NaCl, 5 KCl, 1 MgCl2, 1 CaCl2, 10 D-glucose, 5 HEPES and 25 NaHCO3 (pH 7.4). The solutions are aerated with 95% O2/5% CO2 and maintained at 37° C. For measurement of basolateral K^+ conductance, a mucosal-to-serosal K^+ gradient is established using solutions containing K^+ as the major charge-carrying ion. The apical solution contained (in mM): 142.5 K-gluconate, 1.25 CaCl2, 0.40 MgSO4, 0.43 KH2PO4, 0.35 Na2HPO4, 10 HEPES, 5.6 D-glucose, pH 7.4. […] For measurement of apical Cl^− conductance, a basolateral to apical Cl^− gradient is applied. The basolateral solution contained (in mM): 120 NaCl, 1 MgCl2, 1 CaCl2, 10 D-glucose, 5 HEPES and 25 NaHCO3 (pH 7.4). In the apical solution 120 mM NaCl is replaced by 5 mM NaCl and 115 mM Na-gluconate, and the basolateral membrane is permeabilized with 250 μg/ml amphotericin B (Pongkorpsakol P, Pathomthongtaweechai N, Srimanote P, Soodvilai S, Chatsudthipong V, and Muanprasat C. Inhibition of cAMP-activated intestinal chloride secretion by diclofenac: cellular mechanism and potential application in cholera. PLoS Negl Trop Dis. 2014; 8(9):e3119). Short-circuit current is measured using an EVC4000 multichannel voltage clamp (World Precision Instruments, Sarasota, FL). For intestinal short-circuit current measurement, CD1 mice are anesthetized with isoflurane. The ileum is removed, washed with ice-cold Krebs buffer, opened along the mesenteric border, and full-thickness layer is mounted in a micro-Ussing chamber (area 0.7 cm2, World Precision Instruments, Sarasota, FL). Hemichambers are filled with oxygenated Krebs-bicarbonate solution.
The effect of ErbB TKIs lapatinib, gefitinib, and afatinib on Cl^− secretory responses in T84 human colonic epithelial cells is tested. Short-circuit current is measured in T84 cell monolayers with identical solutions bathing the apical and basolateral surfaces.

mouse ileum = experiment: Short-circuit current in mouse ileum (micro-Ussing chamber); type: cell-based
total cellular cAMP = experiment: cAMP immunoassay in T84 cells; type: cell-based, human; settings: 30 min
[2] = system: cytoplasmic Ca2+ concentration; experiment: Cytoplasmic Ca2+ concentration by Fluo-4 fluorescence in T84 cells; type: cell-based, human
[3] = target: T1, apical membrane CFTR Cl- channels (Homo sapiens, UniProt P13569); experiment: Apical Cl- conductance: short-circuit current in basolaterally permeabilized T84 cells with Cl- gradient; type: cell-based; settings: basolateral membrane permeabilized, afatinib, 100 μM carbachol
T1 construct: endogenous in cells; host or cells: T84 (ATCC CCL-248)

[4] = 20 μM afatinib, 100 μM carbachol

Row | SMILES | shape of carbachol response curves, presence vs. absence of afatinib ([1]; 20 μM afatinib) | effect on forskolin-induced current response ([1]; 20 μM afatinib followed by forskolin) | effect on EGF-mediated suppression of carbachol-induced current ([1]; 20 μM afatinib with 100 ng/ml EGF, 25 min prior to 100 μM carbachol) | time between afatinib and carbachol additions for half maximal amplifying effect [1, 4] [min] | time between afatinib and carbachol additions for maximal amplifying effect [1, 4] [min] | carbachol response in BAPTA-treated cells ([1]; 30 μM BAPTA-AM, 20 μM afatinib, 100 μM carbachol) | short-circuit current, TKI alone ([1]; 40 μM lapatinib, 20 μM gefitinib, 20 μM afatinib, before carbachol) | effect on ATP- and thapsigargin-induced short-circuit current (Cl- secretion) ([1]; TKI added 25 min prior to 100 μM ATP or 2 μM thapsigargin) | amplification of carbachol-induced Cl- secretory response [1] | short-circuit current, compound alone (mouse ileum; 20 μM afatinib) | effect on current response to carbachol (mouse ileum; 20 μM afatinib 25 min prior to 200 μM carbachol) | effect on increase in cAMP following forskolin (total cellular cAMP; 20 μM afatinib with forskolin) | total cellular cAMP, compound alone (total cellular cAMP; 20 μM afatinib) | cytoplasmic Ca2+ concentration, compound alone ([2]; 20 μM afatinib) | effect on transient elevations in Ca2+ concentration following ATP or carbachol ([2]; 20 μM afatinib 20 min prior to 100 μM ATP or 100 μM carbachol) | increase in carbachol response (apical Cl- conductance) after pretreatment [3] [fold]
1 | CN(C)C/C=C/C(=O)Nc1cc2c(Nc3ccc(F)c(Cl)c3)ncnc2cc1O[C@H]1CCOC1 [afatinib] | broader (slower return to baseline) | amplifies the forskolin-induced current response | overcomes the EGF-mediated suppression of carbachol-induced current | 10 to 15 | ~25 | substantial residual carbachol response | do not increase short-circuit current | amplifies | 2-3 fold | does not by itself increase short-circuit current | amplifies the current response to carbachol | nor does it affect the increase in cAMP following forskolin | does not itself increase total cellular cAMP | does not by itself increase | nor does it have significant effect | > 4
2 | CS(=O)(=O)CCNCc1ccc(-c2ccc3ncnc(Nc4ccc(OCc5cccc(F)c5)c(Cl)c4)c3c2)o1 [lapatinib] |  |  |  |  |  |  |  |  | 2-3 fold |  |  |  |  |  |  | 
